Taken from: PubChem BioAssay AID1508588 (Peter MacCallum Cancer Centre, 2020)
This is one part, drawn at random, of about 18,000 reagents tested. 790 of them (4.4%) count as active. 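Calls rest on a combination of fold-change classes in drug and vehicle arms, not all shown here.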 A number with no mark means an inactive call.

Assay: 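Genome-wide search for knock-downs that heighten vemurafenib action in melanoma cells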 (primary screen)
Cell system: human WM266.4 melanoma cells (BRAF V600 mutant)
Knock-down reagent: siRNA pool against human genes, 40 nM
Timing: 96 h from transfection to read-out
Challenge: vemurafenib 300 nM (about IC25), added 48 h after transfection, for 48 h; comparison arm got DMSO vehicle only
Read-out: 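Cell gain (DAPI nuclei at end minus before drug, mean of two replicates) and medium lactate by absorbance per cell, both as ratio to non-targeting siRNA, also grouped into fold-change classes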
Direction: cell gain with vemurafenib: higher = more cell gain than with non-targeting siRNA; lactate per cell with vemurafenib: higher = more lactate made per cell
Hit rule: 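Enhancement is called by pairing each knock-down's vehicle-arm and drug-arm fold-change classes for viability or glycolysis; which class combinations qualify is not given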
Meaning of the calls: active = enhances vemurafenib effect; inactive = no enhancement seen

Which result is listed for INIP [SID134318000]?
cell gain with vemurafenib: 0.62; lactate per cell with vemurafenib: 1.42

Which result is listed for PDP2 [SID134325434]?
cell gain with vemurafenib: 0.5; lactate per cell with vemurafenib: 0.36

How did the screen score CRKL [SID152150429]?
cell gain with vemurafenib: 0.89; lactate per cell with vemurafenib: 0.63

With HOXA2 [SID134324999], what does the deposit list?
cell gain with vemurafenib: 0.54; lactate per cell with vemurafenib: 0.57

With RGMB [SID152151986], how do the results read?
cell gain with vemurafenib: 0.54 (active); lactate per cell with vemurafenib: 0.7

Which result is listed for VLDLR [SID152153245]?
cell gain with vemurafenib: 0.99; lactate per cell with vemurafenib: 0.77

What is on record for ADCY10 [SID134311747]?
cell gain with vemurafenib: 0.87; lactate per cell with vemurafenib: 0.86

For MBOAT7 [SID152152836], what does the deposit list?
cell gain with vemurafenib: 0.76; lactate per cell with vemurafenib: 0.93

What is on record for NDUFA12 [SID134313925]?
cell gain with vemurafenib: 0.62; lactate per cell with vemurafenib: 1.01

Which result is listed for CHST13 [SID134313884]?
cell gain with vemurafenib: 0.85; lactate per cell with vemurafenib: 0.81

For HPSE [SID152151856], what does the deposit list?
cell gain with vemurafenib: 0.6; lactate per cell with vemurafenib: 0.97

How did the screen score AMY1C [SID135625182]?
cell gain with vemurafenib: 0.92; lactate per cell with vemurafenib: 0.72

With CLEC17A [SID135625078], what does the deposit list?
cell gain with vemurafenib: 0.25; lactate per cell with vemurafenib: 1.11

Part of the list above in another layout.
{"target gene": "MBOAT7", "PubChem SID": "SID152152836", "cell gain with vemurafenib": 0.76, "lactate per cell with vemurafenib": 0.93}
{"target gene": "NDUFA12", "PubChem SID": "SID134313925", "cell gain with vemurafenib": 0.62, "lactate per cell with vemurafenib": 1.01}
{"target gene": "CHST13", "PubChem SID": "SID134313884", "cell gain with vemurafenib": 0.85, "lactate per cell with vemurafenib": 0.81}

The results go on:
How did the screen score CARTPT [SID134323648]?
cell gain with vemurafenib: 0.3; lactate per cell with vemurafenib: 1.56

With DHRS7 [SID134314304], what was measured?
cell gain with vemurafenib: 0.11; lactate per cell with vemurafenib: 0.58

How did the screen score IRX3 [SID134325427]?
cell gain with vemurafenib: 0.57; lactate per cell with vemurafenib: 0.23

With NAT2 [SID152149284], what does the deposit list?
cell gain with vemurafenib: 0.6; lactate per cell with vemurafenib: 0.87

How did the screen score RAB4A [SID134313406]?
cell gain with vemurafenib: 0.92; lactate per cell with vemurafenib: 1.1

Which result is listed for NUP50 [SID152146975]?
cell gain with vemurafenib: 0.64; lactate per cell with vemurafenib: 0.32

What is on record for HAPLN1 [SID134323298]?
cell gain with vemurafenib: 0.57; lactate per cell with vemurafenib: 1.25

For DENND6A [SID134320494], what was measured?
cell gain with vemurafenib: 0.72 (active); lactate per cell with vemurafenib: 0.66

What did the screen give for PSMC2 [SID134313078]?
cell gain with vemurafenib: 0.15; lactate per cell with vemurafenib: 2.58

What did the screen give for NOMO3 [SID135625132]?
cell gain with vemurafenib: 0.97; lactate per cell with vemurafenib: 0.5

Which result is listed for BGLAP [SID152147148]?
cell gain with vemurafenib: 0.56; lactate per cell with vemurafenib: 0.88

With MYL4 [SID134316057], how do the results read?
cell gain with vemurafenib: 0.84; lactate per cell with vemurafenib: 0.31

For NUP37 [SID134318450], how do the results read?
cell gain with vemurafenib: 0.99 (active); lactate per cell with vemurafenib: 0.48

Which result is listed for GPR107 [SID152156433]?
cell gain with vemurafenib: 1.03; lactate per cell with vemurafenib: 0.98
